Experimental data as given in PMC9809949.
Changes are numbered by the printed parent chain. These are yes or no findings as the source states them, for the method shown. In cells and extracts the contact can be indirect. Some binding calls cover weakened binding; strength is not graded here. For part of these data: Tags and fused reporters may be left off the sequences shown.

The chains behind the UniProt entries cited, without tags or fusion partners. Residues count along the entry.
UniProt P08195, residues 102-630: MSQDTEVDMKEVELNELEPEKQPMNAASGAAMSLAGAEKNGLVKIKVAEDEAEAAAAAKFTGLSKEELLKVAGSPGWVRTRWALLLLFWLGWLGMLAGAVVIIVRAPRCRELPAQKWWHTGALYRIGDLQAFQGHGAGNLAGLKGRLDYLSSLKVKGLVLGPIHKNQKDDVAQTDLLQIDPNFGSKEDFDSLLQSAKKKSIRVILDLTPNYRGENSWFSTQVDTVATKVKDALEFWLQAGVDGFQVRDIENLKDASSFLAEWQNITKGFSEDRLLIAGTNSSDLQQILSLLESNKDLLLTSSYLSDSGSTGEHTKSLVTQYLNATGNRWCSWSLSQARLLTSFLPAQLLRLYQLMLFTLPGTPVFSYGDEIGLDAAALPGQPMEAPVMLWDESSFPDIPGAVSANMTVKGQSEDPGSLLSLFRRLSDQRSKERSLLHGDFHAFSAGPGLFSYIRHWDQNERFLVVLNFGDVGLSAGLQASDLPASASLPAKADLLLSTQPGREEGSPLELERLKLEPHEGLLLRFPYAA
UniProt P10852: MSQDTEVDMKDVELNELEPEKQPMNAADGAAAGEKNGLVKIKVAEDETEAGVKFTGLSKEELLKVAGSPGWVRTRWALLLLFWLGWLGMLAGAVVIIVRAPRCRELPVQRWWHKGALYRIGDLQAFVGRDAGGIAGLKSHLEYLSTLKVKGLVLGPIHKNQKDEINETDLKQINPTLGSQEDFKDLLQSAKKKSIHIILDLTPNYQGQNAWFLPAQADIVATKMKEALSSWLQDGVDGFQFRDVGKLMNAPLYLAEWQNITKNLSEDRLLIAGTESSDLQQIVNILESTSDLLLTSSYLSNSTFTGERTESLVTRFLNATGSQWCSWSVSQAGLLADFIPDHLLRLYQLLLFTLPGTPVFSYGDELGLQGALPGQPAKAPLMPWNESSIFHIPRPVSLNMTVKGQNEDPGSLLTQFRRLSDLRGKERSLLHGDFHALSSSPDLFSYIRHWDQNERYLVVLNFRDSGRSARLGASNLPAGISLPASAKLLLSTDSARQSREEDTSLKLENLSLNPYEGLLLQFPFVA

Tests used:
FLAG-DNAJC5/CSPα WT = target: T1, FLAG-DNAJC5/CSPα WT (UniProt Q9H3Z4); assay: co-IP; FLAG M2 agarose beads incubated with lysates containing tagged DNAJC5 for 1 h at 4°C; endogenous SLC3A2 detected by immunoblotting
T1 sequence: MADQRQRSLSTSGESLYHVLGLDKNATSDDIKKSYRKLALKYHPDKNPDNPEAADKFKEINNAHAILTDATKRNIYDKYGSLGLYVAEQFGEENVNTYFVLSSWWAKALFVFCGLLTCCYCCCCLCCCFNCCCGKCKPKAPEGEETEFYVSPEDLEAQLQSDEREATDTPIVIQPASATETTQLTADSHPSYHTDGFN

[1] = target: SLC3A2::GFP (GFP tag at the endogenous SLC3A2 locus) (human (endogenous in HEK293T)) (UniProt P08195); assay: co-IP; GFP-Trap beads on lysates of SLC3A2::GFP cells transfected with DNAJC5 variants, 1 h at 4°C; DNAJC5 detected by immunoblotting and normalised to DNAJC5 in lysates
[2] = target: SLC3A2 (endogenous, mouse primary neurons) (mouse (endogenous in primary neurons)) (UniProt P10852); assay: co-IP; endogenous proteins, mouse cortical neuron lysates in CHAPS or NP40 lysis buffer; SLC3A2 antibody or rabbit IgG overnight at 4°C, protein A beads; immunoblotting

With “SLC3A2/CD98hc (endogenous) (from UniProt P08195 1-529)” the binding (FLAG-DNAJC5/CSPα WT) was “binds”.

B1: FLAG-DNAJC5/CSPα WT (protein, UniProt Q9H3Z4 1-198)
chain: T1 sequence
In the case of B1, the binding [1] is reported as “binds”.

B2: DNAJC5 (endogenous, mouse primary neurons) (protein, UniProt P60904 1-198)
chain: T1 sequence with F112V
With B2 the binding [2] was “binds”.
